Results are given in words; binding and its absence hold for the method and conditions named. Binding seen in cells or lysates may run through a third protein. Some binding calls cover weakened binding; strength is not graded here. Sequences can lack the tags named with a protein.
Target: T1, TAP-tagged Bdp1 (S. cerevisiae) (UniProt P46678)
T1 sequence: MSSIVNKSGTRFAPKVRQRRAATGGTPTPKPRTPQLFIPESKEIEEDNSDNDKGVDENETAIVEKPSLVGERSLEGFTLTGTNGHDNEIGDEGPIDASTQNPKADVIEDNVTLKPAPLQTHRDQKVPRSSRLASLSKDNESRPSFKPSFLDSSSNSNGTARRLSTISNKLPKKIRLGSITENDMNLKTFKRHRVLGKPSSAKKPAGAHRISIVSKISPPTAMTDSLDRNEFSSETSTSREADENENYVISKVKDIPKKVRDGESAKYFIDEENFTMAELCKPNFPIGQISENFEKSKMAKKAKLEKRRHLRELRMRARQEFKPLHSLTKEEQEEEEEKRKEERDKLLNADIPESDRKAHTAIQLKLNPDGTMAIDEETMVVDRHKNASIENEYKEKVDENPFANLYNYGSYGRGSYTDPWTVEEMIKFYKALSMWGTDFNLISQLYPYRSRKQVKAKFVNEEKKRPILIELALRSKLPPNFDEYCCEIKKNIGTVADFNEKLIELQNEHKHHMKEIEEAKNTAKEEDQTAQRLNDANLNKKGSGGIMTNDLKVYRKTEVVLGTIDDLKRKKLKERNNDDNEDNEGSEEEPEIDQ
Experiment: co-IP; Bdp1-TAP purified from yeast cell lysates on IgG sepharose beads, 2 hours at 4°C, three washes with IPP150 buffer, eluted with 0.5 M acetic acid pH 3.5; immunoblot with anti-myc (Hmt1) and anti-Protein A (Bdp1); parallel purification from a strain lacking TAP-tagged proteins as negative control

B1: myc-tagged Hmt1 (enzyme, UniProt P38074 1-348)
chain: MSKTAVKDSATEKTKLSESEQHYFNSYDHYGIHEEMLQDTVRTLSYRNAIIQNKDLFKDKIVLDVGCGTGILSMFAAKHGAKHVIGVDMSSIIEMAKELVELNGFSDKITLLRGKLEDVHLPFPKVDIIISEWMGYFLLYESMMDTVLYARDHYLVEGGLIFPDKCSIHLAGLEDSQYKDEKLNYWQDVYGFDYSPFVPLVLHEPIVDTVERNNVNTTSDKLIEFDLNTVKISDLAFKSNFKLTAKRQDMINGIVTWFDIVFPAPKGKRPVEFSTGPHAPYTHWKQTIFYFPDDLDAETGDTIEGELVCSPNEKNNRDLNIKISYKFESNGIDGNSRSRKNEGSYLMH
binding: binds

Reference: paper PMC3568405
